The results in this text go back to ChEMBL document CHEMBL5625199, “Discovery of triazole-bridged aryl adamantane analogs as an intriguing class of multifunctional agents for treatment of Alzheimer's disease” (Eur J Med Chem, 2023).

A short description of this data set: in vitro. The conditions noted are these: PAMPA.

Compound `COc1cc2c(cc1OC)C(=O)C(CC1CCN(Cc3ccccc3)CC1)C2` (stereo unspecified) [DONEPEZIL] showed a Papp at 18 h, 25 ug/ml of 8.68 ×10⁻⁶ cm/s.
